According to PubChem BioAssay AID488837 (National Center for Advancing Translational Sciences (NCATS), 2010):
The campaign covered roughly 330,000 compounds. About 20 (0.006%) were called active. Inconclusive means that the source gave no clear call. Such entries were picked first, then a sample of the others. Calls follow the shape of the dose curve; as a rule, active = well fitted inhibition curve with a large enough effect; inconclusive = small, poorly fitted or top-dose-only effect, or effect the other way; inactive = flat fitted curve, though single readings scatter. Where the call is inconclusive, the potency comes from a doubtful curve fit.

By UniProt entry, the sequences of proteins in these tests, tags left out. Where a name states a change or a piece, a line headed by the entry shows the natural chain unless it says otherwise.
UniProt O00167: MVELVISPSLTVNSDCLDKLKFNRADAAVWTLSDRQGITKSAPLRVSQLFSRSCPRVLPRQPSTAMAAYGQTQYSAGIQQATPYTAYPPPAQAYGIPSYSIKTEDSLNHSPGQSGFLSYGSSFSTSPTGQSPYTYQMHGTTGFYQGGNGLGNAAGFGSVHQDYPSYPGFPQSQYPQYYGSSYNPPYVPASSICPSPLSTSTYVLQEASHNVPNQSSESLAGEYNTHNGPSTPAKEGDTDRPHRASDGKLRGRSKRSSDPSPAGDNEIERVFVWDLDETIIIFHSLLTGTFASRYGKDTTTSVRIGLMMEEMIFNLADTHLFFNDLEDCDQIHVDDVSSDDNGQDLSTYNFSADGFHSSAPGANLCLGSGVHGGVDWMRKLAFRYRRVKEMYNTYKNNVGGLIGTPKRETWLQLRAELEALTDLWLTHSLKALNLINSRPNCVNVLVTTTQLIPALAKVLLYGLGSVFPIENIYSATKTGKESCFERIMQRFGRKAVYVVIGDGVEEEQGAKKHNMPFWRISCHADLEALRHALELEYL

Target: Protein phosphatase EYA2 (Homo sapiens) (UniProt O00167)
Assay: qHTS Assay for Inhibitors of the Phosphatase Activity of Eya2
Details: recombinant Eya2, OMFP fluorescence dephosphorylation (OMFP is methylfluorescein phosphate); activity, negative = inhibition: at 76.9 µM (top of the series) unless noted
How it was run: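 Eya2 (0.2 uM) preincubated 10 min at ambient with compound, then OMFP substrate added at 50 uM; 10 min reaction in 50 mM HEPES pH 7.5, 50 mM NaCl, 5 uM MgCl2, 0.05% BSA, 1 mM DTT. Fluorescence read at Ex 485/Em 525 nm.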
% is scaled to controls: 0 for no effect and ±100 for the full control effect; potency is read from the fitted curve at half-maximal effect.

| Compound | activity, negative = inhibition | Potency |
| --- | --- | --- |
| CC1=CC(c2ccccc2)n2nc(N3C(=O)c4ccccc4C3=O)nc2N1 (configuration not stated) | inactive: 13.6% |  |
| O=C1c2cccc3cc([N+](=O)[O-])cc(c23)C(=O)N1CCN1CCCC1 |  | inconclusive: 200 µM [inhibitor, single point] |
| COc1ccc(-c2cc3ccccc3n2CC(O)CNCCO)cc1 (configuration not stated) | inactive: -8.03% |  |
| O=C(c1cc([N+](=O)[O-])ccc1N1CCCCC1)N1CCCCC1 |  | inconclusive: 15.8 µM [inhibitor, single point] |
| COc1cccc2c(SCC(=O)N/N=C/c3ccc(O)c(O)c3)cc(C)nc12 | inactive: -10.7% |  |
| Cc1nc2sccn2c(=O)c1S(=O)(=O)Nc1ccc(N2CCN(S(C)(=O)=O)CC2)cc1 | inactive: 16% |  |
| CCOC(=O)C1(Cc2cccc(F)c2)CCN(Cc2ccc(COC)o2)CC1 |  | inconclusive: 28.2 µM [inhibitor, partial curve] |
| CCS(=O)(=O)C1=NSC2=NC(=O)/C(=C\c3ccc(OS(=O)(=O)c4ccccc4)cc3)C(=N)N21 |  | inconclusive: 22.4 µM [inhibitor, single point] |
| CSc1ccccc1C(=O)Nc1cc2c(cc1C(=O)O)OCCCO2 |  | inconclusive: 17.8 µM [inhibitor, single point] |
| CCOC(=O)C(CC)/C(C)=N/NC(=O)c1ccc([N+](=O)[O-])cc1 (configuration not stated) |  | inconclusive: 224 µM [inhibitor, partial curve, poor fit] |
| COc1ccccc1-c1nc(COc2ccc(Cl)cc2Cl)no1 |  | inconclusive: 22.4 µM [inhibitor, partial curve, poor fit] |
| Cc1ccc(CNc2ccc(N3CCN(C)CC3=O)cc2)cc1 | inactive: 2.58% |  |
| CC(C)CCn1c(=O)c2ccccc2n2c(CCC(=O)NC3CCN(Cc4ccccc4)CC3)nnc12 |  | inconclusive: 79.4 µM [inhibitor, single point] |
| COc1cc(/C=C2\COC/C(=C\c3ccc(O)c(OC)c3)C2=O)ccc1O | inactive: -3.56% |  |
| CCCCCCNC(=O)C(C#N)c1nc2ccccc2nc1N1CCCC1 (configuration not stated) | inconclusive: 70.9% [activator] |  |
| O=C(OCc1nc2ccccc2[n+]([O-])c1C(=O)c1ccccc1)c1cccnc1 |  | inconclusive: 25.1 µM [inhibitor, single point] |
| O=C(COc1cccc(F)c1)N1c2ccccc2Sc2ccccc21 | inactive: 1.13% |  |
| Cc1cccc2cc(CN(CC3CCCO3)C(=S)NCc3ccco3)c(=O)[nH]c12 (configuration not stated) | inactive: 4.2% |  |
| O=C(N/N=C/c1cc([N+](=O)[O-])ccc1O)c1cccc(NC(=O)c2cccc(Cl)c2)c1 | inactive: 3.31% |  |
| O=C(O)c1ccc(/C=N/NC(=O)c2cc3ccccc3cc2O)cc1 | inactive: 5.18% |  |
| [O-][N+]1=c2ccc(Nc3ccccc3)cc2=NC12CCCCC2 | inactive: -12.6% |  |
| Cc1cc(-c2n[nH]c(=S)n2/N=C/c2cc([N+](=O)[O-])ccc2Cl)n[nH]1 | inactive: -3.66% |  |
| CCOc1ccc(-n2c(SCC(=O)Nc3ccc(OC)cc3OC)nc3c(c2=O)SCC3)cc1 |  | inconclusive: 20 µM [inhibitor, single point] |
| Cc1ccccc1Nc1c(N)c(=O)oc2ccccc12 | inactive: 5.96% |  |

| Compound | activity, negative = inhibition | Potency |
| --- | --- | --- |
| CCOC(=O)C1CCCN(c2c(NCCN3CCCCC3C)c(=O)c2=O)C1 (configuration not stated) |  | inconclusive: 15.8 µM [inhibitor, partial curve] |
| O=C(c1c[nH]c2ccc(S(=O)(=O)N3CCOCC3)cc2c1=O)N1CCCC1 | inactive: 17.6% |  |
| CC(=O)Nc1ccc(S(=O)(=O)N2CCN(c3cc(C)nc4ncnn34)CC2)cc1 |  | inconclusive: 631 µM [inhibitor, single point] |
| N#C/C(=C\c1ccc(O)c(O)c1)C(=O)N1CCc2ccccc21 | inactive: 14.5% |  |
| OCC[n+]1ccc(/C=C/c2c[nH]c3ccccc23)cc1 | inconclusive: 49.2% [activator] |  |
| CC(C)(C)C(=O)CN1C(=O)NC(C)(Cc2ccc3c(c2)OCO3)C1=O (configuration not stated) |  | inconclusive: 224 µM [inhibitor, partial curve, poor fit] |
| COc1ccc(-c2cn[nH]c2-c2ccc(OCc3ccccc3)cc2O)cc1 |  | inconclusive: 89.1 µM [inhibitor, single point] |
| CN(CC(=O)Nc1cccc(F)c1)C(=O)c1cc(-c2ccco2)nc2ccccc12 | inactive: -9.62% |  |
| Cc1[nH]c2ccccc2c1C(=O)C(=O)N1CCN(c2cccc(Cl)c2)CC1 |  | inconclusive: 89.1 µM [inhibitor, single point] |
| CCOCCCNC(=O)/C(C#N)=C/c1cc(Br)c(O)c(Br)c1 |  | inconclusive: 20 µM [inhibitor, single point] |
| Clc1cc2nc3ccccn3c2cc1Cl |  | inconclusive: 22.4 µM [inhibitor, single point] |
| Cc1cc(C)cc(NC(=O)c2cccn2-c2ncc(C(F)(F)F)cc2Cl)c1 |  | inconclusive: 22.4 µM [inhibitor, single point] |
| Cc1cccc(NS(=O)(=O)c2ccc3c(c2)CCC(=O)N3)c1 |  | inconclusive: 22.4 µM [inhibitor, single point] |
| O=C(Cn1cc2c(n1)CCCCC2)N1CCc2ccccc21 | inactive: 7.3% |  |
| COC(=O)c1cc(S(=O)(=O)N2CCC(C(N)=O)CC2)oc1C |  | inconclusive: 70.8 µM [inhibitor, single point] |
| CCOC(=O)c1c(CC(C)C)csc1/N=C/C1=C(O)CCCC1=O |  | inconclusive: 100 µM [inhibitor, single point] |
| C=CCOc1ccccc1CNc1ccc2c(c1)OCCO2 | inactive: -25.2% |  |
| CN1CCc2c(OCC(=O)N3CCCc4ccccc43)cccc2C1=O |  | inconclusive: 100 µM [inhibitor, single point] |
| O=C(CSc1nnc(CNC(=O)c2ccco2)o1)Nc1cccc(Cl)c1 |  | inconclusive: 20 µM [inhibitor, single point] |
| COc1ccc(CCNC(=S)c2ccccc2)cc1OC |  | inconclusive: 15.8 µM [inhibitor, single point] |
| O=C(NC1CCCCC1)C1CCCN(S(=O)(=O)c2cccc3cccnc23)C1 (configuration not stated) | inactive: 17.3% |  |
| O=C1C=C(N2CCOCC2)c2ccccc2C1=O | inactive: 9.26% |  |
| O=C(CN1CCN(Cc2ccccc2)CC1)Nc1cccc(S(=O)(=O)N2CCCCCC2)c1 | inconclusive: 30.4% [activator] |  |
| COC(=O)C1CCN(C(=O)COC(=O)c2cc([N+](=O)[O-])ccc2N2CCOCC2)CC1 |  | inconclusive: 15.8 µM [inhibitor, single point] |

Reformatted as tab-separated lines: 5 of the compounds above
Compound	activity, negative = inhibition	Potency
N#C/C(=C\c1ccc(O)c(O)c1)C(=O)N1CCc2ccccc21	inactive: 14.5%	
OCC[n+]1ccc(/C=C/c2c[nH]c3ccccc23)cc1	inconclusive: 49.2% [activator]	
CC(C)(C)C(=O)CN1C(=O)NC(C)(Cc2ccc3c(c2)OCO3)C1=O (configuration not stated)		inconclusive: 224 µM [inhibitor, partial curve, poor fit]
COc1ccc(-c2cn[nH]c2-c2ccc(OCc3ccccc3)cc2O)cc1		inconclusive: 89.1 µM [inhibitor, single point]
CN(CC(=O)Nc1cccc(F)c1)C(=O)c1cc(-c2ccco2)nc2ccccc12	inactive: -9.62%	

Following part.

| Compound | activity, negative = inhibition | Potency |
| --- | --- | --- |
| O=C(Nc1ccc(Cl)cc1Cl)c1cc2ccccc2o1 | inactive: 0.436% |  |
| COc1cc2c3nnc(-c4ccccc4)c-3cn(Cc3ccccc3F)c2cc1OC |  | inconclusive: 89.1 µM [inhibitor, single point] |
| Cc1nc2ncccn2c1-c1csc(Nc2ccc(N(C)C)cc2)n1 |  | inconclusive: 100 µM [inhibitor, single point] |
| O=C(Nc1ccc(N2CCOCC2)cc1Cl)C1CCN(C(=O)OCc2ccccc2)CC1 |  | inconclusive: 56.2 µM [inhibitor, single point] |
| Cc1ccc(S(=O)(=O)N2CCOCC2)cc1NC(=O)COC(=O)CSc1ccc(Br)cc1C |  | inconclusive: 15.8 µM [inhibitor, single point] |
| CCOC(=O)c1[nH]c2ccccc2c1NC(=O)NC1CCCCC1 |  | inconclusive: 56.2 µM [inhibitor, partial curve] |
| COc1cc(/C=C/c2nc3ccccc3s2)cc(OC)c1O |  | inconclusive: 79.4 µM [activator, partial curve, poor fit] |
| O=C(NCc1ccccc1)Nc1cc(Cl)ccc1Cl |  | inconclusive: 89.1 µM [inhibitor, single point] |
| CC(=O)c1ccc(NC(=S)N2CCN(CCO)CC2)cc1 |  | inconclusive: 79.4 µM [inhibitor, single point] |
| COc1cc2cc(CN(C(=O)NC3CCCCC3)C3CCCC3)c(=O)[nH]c2cc1OC | inactive: -19.1% |  |
| COc1ccc(NC(=O)N(C2CCCCC2)C(C)c2cccnc2)c(OC)c1 (configuration not stated) |  | inconclusive: 25.1 µM [inhibitor, single point] |
| C/C(=N\OCC(=O)N/N=C/c1ccccc1O)c1cccs1 | inactive: -13.8% |  |
| C=CCOc1ccc(/C=C/C(=O)OCC(=O)N2CCCc3ccccc32)cc1 |  | inconclusive: 20 µM [inhibitor, partial curve] |
| O=C(Nc1nnc(S(=O)(=O)N2CCOCC2)s1)c1ccccc1Br |  | inconclusive: 25.1 µM [inhibitor, partial curve, poor fit] |
| Cc1ccc(NC(=O)C(c2ccccc2)c2ccccc2)c(O)c1 |  | inconclusive: 14.1 µM [inhibitor, single point] |
| O=C(/C=C/c1ccccc1)/C=C/c1ccccc1 | inactive: -11.7% |  |
| COc1ccc(NC(=O)Nc2ccc3c(c2)N(C)C(=O)CS3)cc1Cl | inactive: 18.8% |  |
| O=C(c1cnc2n(c1=O)CCS2)N1CCN(c2ccc([N+](=O)[O-])cc2)CC1 |  | inconclusive: 14.1 µM [inhibitor, single point] |
| CCN(CC)CCn1c2c(c(SCC(=O)Nc3ccccc3Cl)nc1=O)CCC2 | inactive: 10.4% |  |
| COc1ccc(Cn2c(C3CC3)nc3ccc(NC(=O)c4cccnc4)cc3c2=O)cc1 |  | inconclusive: 22.4 µM [inhibitor, single point] |
| O=C(NCCc1cccs1)C1CC1 |  | inconclusive: 63.1 µM [inhibitor, single point] |
| Cc1cnc(C(=O)Nc2ccc(C)c(S(=O)(=O)N3CCCCC3)c2)cn1 |  | inconclusive: 8910 µM [inhibitor, partial curve] |
| COc1cc(NC(=S)NCCCO)c(OC)cc1Cl |  | inconclusive: 89.1 µM [inhibitor, single point] |
| CN1CCN(CC(O)COc2ccc(C34CC5CC(CC(C5)C3)C4)cc2)CC1 (configuration not stated) | inactive: -15.1% |  |
